According to PMC7904567:
No constants are given. Whether binding was seen depends on the method and setting. Some results given as binding are weak or reduced against the parent protein; the word gives no strength.

Amino acid sequences for entries named in this document (tags omitted). Residues count along the entry.
UniProt P34067, residues 86-263: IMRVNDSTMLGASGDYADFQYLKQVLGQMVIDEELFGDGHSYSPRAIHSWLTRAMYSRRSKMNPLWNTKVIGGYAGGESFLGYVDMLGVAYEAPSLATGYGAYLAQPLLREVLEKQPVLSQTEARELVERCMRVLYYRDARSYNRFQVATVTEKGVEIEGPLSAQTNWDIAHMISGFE

Legend:
Assay in all cases: two-hybrid; yeast two-hybrid screen with the bait Bsn1; other Bsn fragments tested against PSMB4 in the same assay; no methods section
[1] = target: T1, Bsn fragment covering aa 1–609 (rat) (UniProt O88778)
T1 sequence: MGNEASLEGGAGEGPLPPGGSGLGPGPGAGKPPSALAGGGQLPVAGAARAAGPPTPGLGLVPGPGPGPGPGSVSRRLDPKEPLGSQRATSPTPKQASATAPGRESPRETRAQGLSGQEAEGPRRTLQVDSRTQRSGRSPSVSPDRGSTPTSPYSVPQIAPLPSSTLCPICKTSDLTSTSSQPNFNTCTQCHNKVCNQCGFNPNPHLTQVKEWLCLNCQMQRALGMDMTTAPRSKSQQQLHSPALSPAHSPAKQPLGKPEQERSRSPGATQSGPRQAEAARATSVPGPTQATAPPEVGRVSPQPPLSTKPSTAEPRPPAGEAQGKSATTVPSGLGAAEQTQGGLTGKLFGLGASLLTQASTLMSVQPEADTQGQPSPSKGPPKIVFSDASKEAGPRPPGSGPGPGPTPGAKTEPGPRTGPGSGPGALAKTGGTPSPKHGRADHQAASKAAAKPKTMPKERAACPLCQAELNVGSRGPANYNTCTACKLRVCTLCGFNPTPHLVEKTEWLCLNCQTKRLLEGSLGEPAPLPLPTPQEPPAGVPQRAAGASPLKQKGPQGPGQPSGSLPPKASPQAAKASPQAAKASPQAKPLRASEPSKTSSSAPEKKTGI

[2] = target: T2, Bsn fragment covering aa 609–1692 (rat) (UniProt O88778)
T2 sequence: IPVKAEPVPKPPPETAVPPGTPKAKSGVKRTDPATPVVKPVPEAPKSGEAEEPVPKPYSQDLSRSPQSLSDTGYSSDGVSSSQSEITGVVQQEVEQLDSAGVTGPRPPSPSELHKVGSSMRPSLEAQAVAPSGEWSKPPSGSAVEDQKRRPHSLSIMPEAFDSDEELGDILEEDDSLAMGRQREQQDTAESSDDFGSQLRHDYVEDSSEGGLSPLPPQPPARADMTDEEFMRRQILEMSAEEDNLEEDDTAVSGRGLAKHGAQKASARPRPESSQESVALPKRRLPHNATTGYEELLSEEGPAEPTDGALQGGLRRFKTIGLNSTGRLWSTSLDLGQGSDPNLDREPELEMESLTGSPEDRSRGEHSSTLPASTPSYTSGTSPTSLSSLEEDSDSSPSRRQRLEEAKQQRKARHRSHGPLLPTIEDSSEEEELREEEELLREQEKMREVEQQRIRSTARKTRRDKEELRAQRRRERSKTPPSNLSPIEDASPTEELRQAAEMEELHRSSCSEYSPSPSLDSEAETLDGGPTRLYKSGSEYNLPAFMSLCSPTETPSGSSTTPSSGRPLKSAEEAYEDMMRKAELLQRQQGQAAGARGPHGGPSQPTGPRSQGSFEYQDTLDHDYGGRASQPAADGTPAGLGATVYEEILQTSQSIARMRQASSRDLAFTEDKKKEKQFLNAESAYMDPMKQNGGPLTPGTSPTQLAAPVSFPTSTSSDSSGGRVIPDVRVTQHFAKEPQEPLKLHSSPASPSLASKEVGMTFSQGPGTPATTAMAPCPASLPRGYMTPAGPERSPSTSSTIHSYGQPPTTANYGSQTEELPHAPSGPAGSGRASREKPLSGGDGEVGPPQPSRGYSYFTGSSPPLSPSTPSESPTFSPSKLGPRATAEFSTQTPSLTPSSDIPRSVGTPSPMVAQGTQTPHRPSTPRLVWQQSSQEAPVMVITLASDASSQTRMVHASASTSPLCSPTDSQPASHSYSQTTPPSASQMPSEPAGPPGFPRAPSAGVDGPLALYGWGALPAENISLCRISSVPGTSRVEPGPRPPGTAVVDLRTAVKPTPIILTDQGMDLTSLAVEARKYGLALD

[3] = target: T3, Bsn fragment covering aa 3263–3938 (rat) (UniProt O88778)
T3 sequence: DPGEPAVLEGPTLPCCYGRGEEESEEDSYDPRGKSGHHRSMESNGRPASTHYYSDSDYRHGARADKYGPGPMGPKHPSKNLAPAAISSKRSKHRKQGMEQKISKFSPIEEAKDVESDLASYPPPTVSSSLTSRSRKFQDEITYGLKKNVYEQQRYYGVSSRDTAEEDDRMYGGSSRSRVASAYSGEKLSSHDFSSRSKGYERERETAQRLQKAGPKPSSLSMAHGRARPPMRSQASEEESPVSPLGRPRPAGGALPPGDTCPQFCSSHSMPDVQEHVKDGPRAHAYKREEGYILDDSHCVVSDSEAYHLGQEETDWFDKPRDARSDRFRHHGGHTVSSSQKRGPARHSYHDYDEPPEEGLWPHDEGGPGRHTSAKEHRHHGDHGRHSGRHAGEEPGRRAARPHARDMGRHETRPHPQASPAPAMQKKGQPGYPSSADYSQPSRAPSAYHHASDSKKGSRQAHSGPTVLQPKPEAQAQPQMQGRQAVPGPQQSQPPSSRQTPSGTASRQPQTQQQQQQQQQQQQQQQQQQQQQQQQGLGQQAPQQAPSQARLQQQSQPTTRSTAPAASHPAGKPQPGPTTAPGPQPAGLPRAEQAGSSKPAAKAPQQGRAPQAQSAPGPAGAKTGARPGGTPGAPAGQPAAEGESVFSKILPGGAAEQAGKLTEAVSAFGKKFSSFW

[4] = target: Bsn1 bait fragment (aa 1692–3263 of rat Bsn) (rat) (UniProt O88778)

binding [1]: no binding
binding [2]: no binding
binding [3]: no binding
binding [4]: binds
Substance: N-terminally truncated PSMB4 prey clone starting with aa 86 (from UniProt P34067 86-263) (domain or fragment)
